Measured values reported in paper PMC11339399.
No constants are given. Whether binding was seen depends on the method and setting. In cells and extracts the contact can be indirect. Here binding means that the protein was enriched with, or labelled near, the bait; the list need not be complete.

The chains behind the UniProt entries cited, without tags or fusion partners.
UniProt P37802: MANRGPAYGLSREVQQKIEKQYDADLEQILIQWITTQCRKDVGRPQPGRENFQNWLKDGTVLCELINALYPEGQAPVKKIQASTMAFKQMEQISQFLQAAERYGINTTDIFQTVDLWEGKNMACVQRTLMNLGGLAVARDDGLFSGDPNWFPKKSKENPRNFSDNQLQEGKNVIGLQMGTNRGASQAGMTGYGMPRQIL
UniProt P07355: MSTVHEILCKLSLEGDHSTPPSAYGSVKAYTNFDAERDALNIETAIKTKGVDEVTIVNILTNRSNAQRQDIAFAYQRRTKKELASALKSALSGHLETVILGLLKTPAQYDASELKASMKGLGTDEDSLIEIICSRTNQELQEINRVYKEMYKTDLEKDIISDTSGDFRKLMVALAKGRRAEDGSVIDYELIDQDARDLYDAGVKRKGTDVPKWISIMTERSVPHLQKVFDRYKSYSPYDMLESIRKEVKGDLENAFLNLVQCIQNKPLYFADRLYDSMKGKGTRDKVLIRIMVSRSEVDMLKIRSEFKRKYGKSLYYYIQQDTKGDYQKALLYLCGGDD
UniProt P16402: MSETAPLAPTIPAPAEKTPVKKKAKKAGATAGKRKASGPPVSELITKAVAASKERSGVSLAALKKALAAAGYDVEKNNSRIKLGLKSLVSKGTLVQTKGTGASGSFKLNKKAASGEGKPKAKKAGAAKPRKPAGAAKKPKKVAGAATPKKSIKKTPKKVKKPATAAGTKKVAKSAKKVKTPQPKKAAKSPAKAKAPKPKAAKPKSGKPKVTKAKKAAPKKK
UniProt P08238: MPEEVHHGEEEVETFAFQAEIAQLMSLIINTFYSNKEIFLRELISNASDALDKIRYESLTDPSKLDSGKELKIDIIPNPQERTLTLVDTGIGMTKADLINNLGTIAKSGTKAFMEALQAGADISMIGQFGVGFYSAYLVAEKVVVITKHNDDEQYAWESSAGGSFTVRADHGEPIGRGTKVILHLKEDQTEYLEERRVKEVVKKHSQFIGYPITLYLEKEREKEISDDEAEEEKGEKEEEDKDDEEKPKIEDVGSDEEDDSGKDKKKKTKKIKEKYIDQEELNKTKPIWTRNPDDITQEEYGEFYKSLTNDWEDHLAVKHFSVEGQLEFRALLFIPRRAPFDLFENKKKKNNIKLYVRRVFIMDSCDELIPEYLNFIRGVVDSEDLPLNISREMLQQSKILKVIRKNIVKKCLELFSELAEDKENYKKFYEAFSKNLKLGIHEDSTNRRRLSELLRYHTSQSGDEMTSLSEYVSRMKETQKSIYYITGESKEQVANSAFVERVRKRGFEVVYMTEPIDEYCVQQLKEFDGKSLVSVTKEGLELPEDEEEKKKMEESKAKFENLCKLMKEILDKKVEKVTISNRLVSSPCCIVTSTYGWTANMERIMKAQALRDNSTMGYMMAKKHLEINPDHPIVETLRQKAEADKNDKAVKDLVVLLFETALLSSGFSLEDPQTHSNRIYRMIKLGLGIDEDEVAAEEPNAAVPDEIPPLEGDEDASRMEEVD
UniProt P67809: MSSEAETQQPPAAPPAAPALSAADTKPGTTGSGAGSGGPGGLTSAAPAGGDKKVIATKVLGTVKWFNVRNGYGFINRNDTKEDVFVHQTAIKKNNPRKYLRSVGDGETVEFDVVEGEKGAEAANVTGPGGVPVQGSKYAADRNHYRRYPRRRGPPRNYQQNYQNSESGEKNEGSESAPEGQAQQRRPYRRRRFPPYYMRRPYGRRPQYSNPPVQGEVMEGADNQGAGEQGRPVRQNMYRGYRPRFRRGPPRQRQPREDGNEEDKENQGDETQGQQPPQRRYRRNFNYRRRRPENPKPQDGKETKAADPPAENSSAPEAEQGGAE

molecular target: TAGLN2 (human) (UniProt P37802); experiment: affinity purification with mass spectrometry; Co-IP (Pierce Co-IP kit, antibody coupled to resin, cell lysate overnight at 4 °C) followed by LC-MS/MS to find TAGLN2-binding candidates

binding, binds:
ANXA2 (from UniProt P07355 1-339), HIST1H1D (from UniProt P16402 1-221), Hsp90AB1 (from UniProt P08238 1-724), YBX1 (from UniProt P67809 1-324)
